These are yes or no findings as the source states them, for the method shown. In cells and extracts the contact can be indirect. Here binding means that the protein was enriched with, or labelled near, the bait; the list need not be complete.
Molecular target: human epidermal growth factor receptor 2 (HER2) (human (endogenous in breast cancer specimens and SK-BR-3)) (UniProt P04626)
Test: affinity purification with mass spectrometry; RIME on human breast cancer specimens (Cases 1, 2 and 3): cryosections fixed in 1% formaldehyde for 20 min, lysed and sonicated; endogenous HER2 immunoprecipitated with anti-HER2 antibody 3B5 (ab16901) on Dynabeads Protein G overnight at 4 °C; washed with RIPA and AMBIC; on-bead trypsin digestion; LC-MS/MS with label-free quantification against mouse IgG control

binding: binds
B1: Myristoylated Alanine-Rich C Kinase Substrate (MARCKS) (protein, UniProt P29966 1-332)
chain: MGAQFSKTAAKGEAAAERPGEAAVASSPSKANGQENGHVKVNGDASPAAAESGAKEELQANGSAPAADKEEPAAAGSGAASPSAAEKGEPAAAAAPEAGASPVEKEAPAEGEAAEPGSPTAAEGEAASAASSTSSPKAEDGATPSPSNETPKKKKKRFSFKKSFKLSGFSFKKNKKEAGEGGEAEAPAAEGGKDEAAGGAAAAAAEAGAASGEQAAAPGEEAAAGEEGAAGGDPQEAKPQEAAVAPEKPPASDETKAAEEPSKVEEKKAEEAGASAAACEAPSAAGPGAPPEQEAAPAEEPAAAAASSACAAPSQEAQPECSPEAPPAEAAE

Reference: article PMC12428157
